# Measurements as given in US9834540B2, “Omeprazole Sodium semihydrate and preparation method thereof” (TIANJIN UNIVERSITY, priority 2015, dated 2017).
# Structures can show the parent of a compound that is named as a salt. At least one structure is not confirmed: it was looked up by name or label, or the drawing left a doubt.
# How the values were obtained:
# [1] = prior-art description; cited from earlier work
# [2] = DSC analysis, thermal decomposition temperature; format: physicochemical; settings: 10° C./min, 25˜300° C.
# Procedure: The DSC data is obtained by analysis using a differential scanning calorimetry (DSC1/500, Mettler Toledo Corporation, Switzerland), and the analysis conditions are as follows: adding 10 mg of sample to a 40 μL Aluminum crucible, providing high-purity nitrogen as reaction gas and shield gas with a gas-flow rate of 50 mL/min and 20 mL/min, and raising the temperature at a rate of 10° C./min and a range of 25˜300° C.
# Flowability (carr index) = format: physicochemical
# [3] = Thermal stability test at 60° C. (airtight container, 10 days, weighed regularly); format: physicochemical
# [4] = Hygroscopicity at 40° C. by dynamic vapor sorption; format: physicochemical
structure (smiles),measurement,setting,value
COc1ccc2[nH]c([S+]([O-])Cc3ncc(C)c(OC)c3C)nc2c1 (stereo not shown) [Omeprazole Sodium hydrate],hygroscopicity (in words),[1],high hygroscopicity
"COc1ccc2[nH]c([S+]([O-])Cc3ncc(C)c(OC)c3C)nc2c1 (stereo not shown) [Omeprazole Sodium monohydrate, 5-methoxy-2-[[(4-methoxy-3,5-dimethyl-2-pyridyl)methyl]sulfinyl)]-1H-benzoimidazole sodium salt, reference compound]",thermal decomposition temperature (DSC decomposing exothermic peak),[2],209.0 °C
same,carr index,Flowability (carr index),more than 41%
same,Weight changing rate,[3]; 0 day,0%
same,Weight of sample,[3]; 0 day,9.6761 g
same,Weight changing rate,[3]; 5 day,3.0%
same,Weight of sample,[3]; 5 day,9.3859 g
same,Weight changing rate,[3]; 10 day,4.8%
same,Weight of sample,[3]; 10 day,9.2108 g
same,Weight changing rate,[4]; relative humidity 0%,0%
same,Weight changing rate,[4]; relative humidity 5%,0.002%
same,Weight changing rate,[4]; relative humidity 10%,0.01%
same,Weight changing rate,[4]; relative humidity 15%,0.02%
same,Weight changing rate,[4]; relative humidity 20%,0.03%
same,Weight changing rate,[4]; relative humidity 25%,0.04%
same,Weight changing rate,[4]; relative humidity 30%,0.04%
same,Weight changing rate,[4]; relative humidity 35%,0.04%
same,Weight changing rate,[4]; relative humidity 40%,0.04%
same,Weight changing rate,[4]; relative humidity 45%,0.38%
same,Weight changing rate,[4]; relative humidity 50%,0.46%
same,Weight changing rate,[4]; relative humidity 55%,0.56%
same,Weight changing rate,[4]; relative humidity 60%,0.71%
same,Weight changing rate,[4]; relative humidity 65%,0.95%
same,Weight changing rate,[4]; relative humidity 70%,1.15%
same,Weight changing rate,[4]; relative humidity 75%,1.49%
